Reference: PubChem BioAssay AID1259272 (Sanger Institute, 2017)

Test: 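Kinome-wide siRNA search for genes whose silencing boosts targeted drug effects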 (primary screen)
System: SW1116 human colorectal cancer cells
Reagents: siRNA pool against human genes
Challenge: anchor drugs BYL719 (1 µM), cetuximab (5 µg/ml) or trametinib (10 nM), or DMSO vehicle; exposure length not given
Detection: 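Replicate-averaged viability versus control-pool wells, with a robust z-score for siRNA alone and a per-drug synergy score (BYL719, cetuximab, trametinib)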
Reading the numbers: viability z-score, no drug: higher = more cells remaining; strongly negative means essential gene; viability, no drug: higher = more viable cells; synergy score with BYL719 and synergy score with cetuximab and synergy score with trametinib: higher = stronger synthetic-lethal synergy with the drug
Hit rule: 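a robust z-score under -3 with siRNA and no drug marks the gene essential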
Meaning of the calls: active = essential (knock-down alone); inactive = no change
This is one part, drawn at random, of 794 reagents tested. In the full data, 7 (0.88%) are marked active. 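Essential calls reflect knock-down without drug only, not synergy with drugs; drug exposure length not given.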 A number with no mark means an inactive call. The numbers tell different reagents against one gene apart. No viability above 1 is reported: the scale is capped. Not stated in the record: the amount of reagent, the time to read-out.

gene symbol	reagent no.	viability z-score, no drug	viability, no drug (fraction of control)	synergy score with BYL719	synergy score with cetuximab	synergy score with trametinib
PACSIN1	1	0.842	1	0.0583	0.0677	-0.0334
SRC	1	0.768	0.992	-0.0583	0.0352	0.0223
CAMKV	1	-0.255	0.883	-0.0226	-0.049	0.0967
ILK	1	0.842	1	-0.0763	-0.0333	0.062
ILK	2	0.656	0.98	-0.0221	0.0655	0.158
CERT1	1	0.842	1	-0.038	0.132	0.184
STK31	1	-1.24	0.778	-0.102	-0.0877	0.116
BUB1B	1	-0.652	0.841	0.00404	0.105	0.106
DTYMK	1	0.842	1	-0.0479	0.00164	-0.0279
PRKD3	1	0.432	0.956	-0.0372	0.0258	0.0357
SYNCRIP	1	-1.03	0.801	-0.0818	-0.146	0.00948
CDKL1	1	0.842	1	-0.0788	0.0816	0.0763
LMTK2	1	-0.847	0.82	-0.118	-0.000661	0.00954
PDK3	1	0.842	1	0.0145	0.181	0.193
PRPS2	1	0.686	0.983	0.0204	-0.00303	0.00119
CAMK1G	1	0.404	0.953	-0.00551	-0.0815	-0.00824
TP53	1	-1.36	0.765	-0.0186	0.094	0.152
BRD3	1	0.275	0.94	-0.0926	-0.132	-0.122
CAMK4	1	0.842	1	-0.066	0.0211	-0.0282
CDK15	1	0.842	1	-0.0417	-0.024	-0.106
LRRK2	1	0.824	0.998	0.0348	0.227	0.174

Records above whose gene name begins with I or i (2):
gene symbol	reagent no.	viability z-score, no drug	viability, no drug (fraction of control)	synergy score with BYL719	synergy score with cetuximab	synergy score with trametinib
ILK	1	0.842	1	-0.0763	-0.0333	0.062
ILK	2	0.656	0.98	-0.0221	0.0655	0.158

Further records:
gene symbol	reagent no.	viability z-score, no drug	viability, no drug (fraction of control)	synergy score with BYL719	synergy score with cetuximab	synergy score with trametinib
TPK1	1	0.842	1	-0.0743	0.0835	0.15
AMHR2	1	0.0868	0.92	-0.0353	0.0749	0.253
RIPK3	1	-0.268	0.882	-0.188	-0.185	0.0195
PLK1	1	-4.26 (active)	0.457	-0.136	-0.0836	0.0445
ALPK1	1	0.408	0.954	-0.057	-0.0202	0.17
SRPK3	1	0.842	1	0.0476	-0.0757	0.0675
HK2	1	-0.42	0.866	0.118	0.184	-0.00265
RPS6KL1	1	-0.137	0.896	0.0064	0.0231	0.185
PANK4	1	-2.03	0.694	-0.18	-0.0637	0.11
EPHA10	1	-0.76	0.829	-0.22	0.0621	0.141
AK2	1	-0.789	0.826	-0.206	-0.149	0.228
PAK5	1	-1.05	0.798	-0.0653	-0.165	0.0328
PRKAB2	1	-1.39	0.762	0.0298	-0.0516	0.0135
